According to PMC5572924:
Results are given in words; binding and its absence hold for the method and conditions named. A result given as binding can be weak or reduced; the word gives no strength. For part of these data: Binding seen in cells or lysates may run through a third protein.

By UniProt entry, the sequences of proteins in these tests, tags left out. Residues count along the entry.
UniProt A0A0H2URU9, residues 14-108: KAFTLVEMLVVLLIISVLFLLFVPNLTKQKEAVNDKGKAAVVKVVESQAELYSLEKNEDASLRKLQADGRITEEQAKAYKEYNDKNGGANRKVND

Legend:
[1] = biological target: mature ComGC in competence pili preparations of S. pneumoniae T4 (S. pneumoniae TIGR4 (endogenous in T4)); assay: two-dimensional PAGE (native gel, then SDS-PAGE) with immunoblot; pili preparations of competent T4 WT and T4ΔcomGC run on a 12% native gel; one lane cut and placed on a second SDS-PAGE; immunoblot with ComGC antibody
[2] = biological target: mature ComGC of Streptococcus pneumoniae fused to the T25 or T18 fragment of Bordetella pertussis adenylate cyclase (CyaA) (S. pneumoniae); assay: cross-linking; E. coli BTH101 expressing T25-ComGC/T18-ComGC treated with 1% paraformaldehyde in 10 mM sodium phosphate buffer, pH 6.8, 30 min; cell extracts immunoblotted with anti-ComGC antibody
[3] = biological target: mature ComGC of Streptococcus pneumoniae fused to the T25 or T18 fragment of Bordetella pertussis adenylate cyclase (CyaA) (S. pneumoniae); assay: two-hybrid; bacterial adenylate cyclase two-hybrid (BACTH) in E. coli BTH101; T25 (pKT25) and T18 (pUT18C) fusions; beta-galactosidase activity in liquid culture in Miller units; cultures grown O/N at 30 °C

Substance	binding [1]	binding [2]	binding [3]
mature ComGC in competence pili preparations of S. pneumoniae T4 (from UniProt A0A0H2URU9 14-108)	binds	–	–
mature ComGC of Streptococcus pneumoniae fused to the T25 or T18 fragment of Bordetella pertussis adenylate cyclase (CyaA) (from UniProt A0A0H2URU9 14-108)	–	binds	binds
